In PMC7177946, “Effect of Ferulic Acid, a Phenolic Inducer of Fungal Laccase, on 26S Proteasome Activities In Vitro” (International Journal of Molecular Sciences, 2020):

Each compound was assayed on T1, 26S proteasome (T. versicolor), chymotrypsin-like (CHTL) site, β5 subunit (assay: fluorogenic peptidase assay, Suc-LLVY-AMC). Details: 1000 µM; 30 min preincubation; 100 µM Suc-LLVY-AMC, 2 mM ATP, 5 mM MgCl2, pH 8.0, 37 °C; partially purified native 26S (1-step).
T1 construct: gene PRE2; native 26S complex (20S core plus one or two 19S caps); beta subunits mature with N-terminal Thr; with Proteasome subunit beta type-7 (beta2); Proteasome subunit beta type-6 (beta1)
Type: biochemical, Trametes versicolor

Compared with `O=C(O)c1ccc(O)c(O)c1` [protocatechuic acid, 3,4-dihydroxybenzoic acid], `COc1cc(C(=O)O)ccc1O` [vanillic acid, 4-hydroxy-3-methoxybenzoic acid] is lower in “Remaining CHTL Activity ^1 (% of Control)” value: 103 for the first, 100 for the second.

With `COc1cc(C(=O)O)cc(OC)c1O` [syringic acid, 3,5-dimethoxy-4-hydroxybenzoic acid] the “Remaining CHTL Activity ^1 (% of Control)” value was 102.
